From US11925178B1, “2′-alkyloxy-6′-phenyl[3,4′-bipyridine]-3′-carbonitrile as an insecticidal agent against Aphis craccivora” (priority 2023, dated 2024) come the findings set out here.

The subject of data set [1] is adults of cowpea aphid (Aphis craccivora). The experiment in a line: Leaf dipping insecticidal bioassay, adults of cowpea aphid. The data set is classed as in vivo. Conditions: after 24 h of treatment, probit analysis. On the procedure:
(§1) The original batches of cowpea aphid insects were collected from pest's laboratory, Plant Protection Research Institute, Agricultural Research Center. The target compounds were screened for their insecticidal activity towards nymphs and adults of cowpea aphid.
(§2) The insecticidal activities of compounds 4 and 5 were measured by using leaf dipping method under the same reported laboratory conditions. Five concentrations of compound 4, 5 and 0.1% Tween-80 as a surfactant were used. Nearly the same size 30 nymphs and 30 adults of cowpea aphid insects were used for dipping for 10 second in every concentration of each compound (repeat three times). Insects which tested were allowed to stand to dry at room temperature for about half an hour. In the control experiment, the insects were dunked in distilled water and 0.1% tween-80 only. These applications were carried out at 5% relative humidity, and at a temperature of 25° C. After the used insect had dried, they were transferred to glass jars containing water. With a new binocular microscope, the aphid mortality was taken after 24 hrs of treatment. Any aphid that was unable to move was considered dead. The LC50 values used to evaluate the insecticidal activity were estimated by probit analysis.

The subject of data set [2] is nymphs of cowpea aphid (Aphis craccivora). Description: Leaf dipping insecticidal bioassay, nymphs of cowpea aphid. Conditions: after 24 h of treatment, probit analysis. It is filed as in vivo. On the procedure: as §1, §2

`CCOc1nc(-c2ccccc2)cc(-c2cccnc2)c1C#N` [Compound 4, 2′-Ethoxy-6′-phenyl[3,4′-bipyridine]-3′-carbonitrile]: the figures for the Slope in data set [1] and in data set [2] were 0.461 and 0.397, respectively.

On to `C/C(=N\C#N)N(C)Cc1ccc(Cl)nc1` [Acetamiprid, acetamiprid, reference compound], for which the values for the Slope in data set [1] and in data set [2] were 0.387 and 0.381, respectively.

For the compound `COc1nc(-c2ccccc2)cc(-c2cccnc2)c1C#N` [Compound 5, 2′-Methoxy-6′-phenyl[3,4′-bipyridine]-3′-carbonitrile], the values for the Slope in data set [1] and in data set [2] were 0.492 and 0.322, respectively.
